# Data from US20230331848A1.
# Sequences of proteins named here, by UniProt entry; tags and fusion partners are left off. Residues count along the entry.
# UniProt Q15116, residues 25-167: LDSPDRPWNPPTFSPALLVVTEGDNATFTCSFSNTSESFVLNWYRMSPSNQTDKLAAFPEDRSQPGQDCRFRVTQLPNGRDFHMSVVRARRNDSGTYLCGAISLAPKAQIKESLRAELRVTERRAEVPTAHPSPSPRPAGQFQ
# Positions count from the first letter of the chain named. These are yes or no findings as the source states them, for the method shown. Some entries that bind do so weakly or less than the wild type.
# B1: humanized antibody huE1A9C8A7-V1 (antibody, human IgG4 S228P, kappa, V domains shown)
# VH: QVQLVQSGAEVVKPGASVKISCKASGYTFSDYVMHWMRQAPGQSLEWIGVISTYHIPAVYNQKFKGKATMTVDKSTSTVYLELSSLRSEDTAVYYCAREVYGDSYYFDVWGQGTTVTVSS
# VL: DIVMTQTPLSLPVTPGEPASISCRSSQSIVHSNGNTYLEWYLQKPGQSPQLLIYKVSNRFSGVPDRFSGSGSGTDFTLKISRVEAEDVGVYYCFQGSHVPYTFGGGTKVEIKR
# B2: humanized antibody huE1A9C8A7-V8-3 (antibody, human IgG4 S228P, kappa, V domains shown)
# VH: B1 VH with S30T, M37V, I48M, K74T, D103E
# VL: B1 VL with N33A
# How the values were obtained:
# [1] = target: human PD-1-his protein (Cat#:PD1-H5221, Acro biosystems Inc.) (human) (UniProt Q15116); assay: BLI (Octet RED96)
# [2] = target: cynomolgus PD-1-his protein (Cat#:PD1-05223, Acro biosystems Inc.) (cynomolgus) (UniProt B0LAJ3); assay: SPR (Biacore)
binding [1],binding [2],Binder
binds,–,B1
–,binds,B2
